Reference: PubChem BioAssay AID1745846 (National Center for Advancing Translational Sciences (NCATS), 2022)
Out of some 1,400 compounds screened, about 30 (2%) were called active. About 15% were inconclusive and are not listed. Calls come from the whole dose curve; as a rule, active = well fitted inhibition curve with a large enough effect; inconclusive = small, poorly fitted or top-dose-only effect; inactive = flat fitted curve, though single readings scatter. Some of the results follow.

Assay: Firefly Luciferase Counterscreen for Inhibitors of ATXN expression
Conditions: luminescence; series mostly up to 57.5 µM; activity change, negative = inhibition: at the top concentration
Procedure, shortened: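 Recombinant firefly luciferase at 10 nM final in 50 mM Tris pH 7.5, 10 mM MgCl2, 0.05% BSA, 0.01% Tween20 with substrate; compounds up to 57 uM final, 10 min room temperature, end-point luminescence. Buffer-only wells define 100% inhibition.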
% is set by controls: 0 for no effect and ±100 for the full control effect; potency is the fitted concentration of half-maximal effect.

Compound | activity change, negative = inhibition | Potency
Cc1ccccc1N1CCN(Cc2c[nH]c3ccccc23)CC1 | inactive: 1.59% | 
COc1cccc(CN(C)C(=O)c2ccc(OCC(=O)Nc3cccc(C(F)(F)F)c3)c(OC)c2)c1 | inactive: -4.36% | 
C/C(=N\NC(=O)COc1cccc(C)c1)c1ccc2ccccc2c1O | inactive: -1.16% | 
Cc1cccc(Cn2c(CN3CCN(Cc4ccccc4)CC3)nc3c2c(=O)[nH]c(=O)n3C)c1 | inactive: 3.07% | 
Oc1ccc(Cc2ccccc2)c2cccnc12 | inactive: -8.95% | 
c1ccc(COc2ncnc3c2ncn3CCCN2CCN(Cc3cccc4ccccc34)CC2)cc1 | inactive: -3.81% | 
CCN(CC)c1ccc(/C=C/c2cccc[n+]2C)c(OC)c1 | inactive: -12.5% | 
O=C(/C=C\c1ccccc1)NCC(=O)N/N=C/c1ccc(O)cc1O | inactive: -11.2% | 
C=CCc1cccc(/C=N/NC(=O)C(C)Nc2ccc(C)cc2)c1O (stereo not drawn) | inactive: -0.705% | 
CCCS(=O)(=O)c1c(S(=O)(=O)CCC)c2c(C)cccn2c1C(=O)N/N=C/c1cc(O)cc(O)c1 | inactive: -9.5% | 
Cc1cccn2c(=O)c3cc(C(=O)NCCc4ccccc4)c(=N)n(CCCn4ccnc4)c3nc12 | inactive: -0.864% | 
Cc1ccnc(N2C(=O)c3cccc4c([N+](=O)[O-])ccc(c34)C2=O)c1 | inactive: -4.41% | 
CCN(CC)CCn1nc2c3c(cccc3c1=O)-c1ccccc1-2 | inactive: 0.924% | 
COC1CC(C)C(OC)c2cc(O)cc(c2O)NC(=O)C(C)=CC=CC(C)C(OC(N)=O)C(C)=CC(C)C1OC (stereo not drawn) | inactive: -11.5% | 
COc1ccc(-n2c(-c3ccc(Cl)cc3)c[n+]3c2CCCCC3)cc1 | inactive: 1.22% | 
CCOc1cc(C=C(C(=O)OC)C(=O)OC)ccc1OCc1ccc([N+](=O)[O-])cc1 | inactive: -4.35% | 
O=C(CN1CCOCC1)N/N=C/c1c(O)ccc2ccccc12 | inactive: -8.22% | 
O=C(Nc1ccc(F)cc1)Nc1cc(OCC(F)(F)F)cc(OCC(F)(F)F)c1 | inactive: 0.506% | 
CN1C2CCC1/C(=C\c1ccccc1)C(=O)/C2=C\c1ccccc1 | inactive: 3.04% | 
CC1(C(=O)NCc2ccccc2Br)CCN1C(=O)Cc1ccc(-c2ccccc2)cc1 (stereo not drawn) | inactive: -4.03% | 
COc1cccc(/C=N/NC(=O)CNC(=O)C2COc3ccccc3O2)c1O (stereo not drawn) | inactive: -16.3% | 

Compound | activity change, negative = inhibition | Potency
CCC(=O)NC(c1cc(Cl)c2cccnc2c1O)C(C)C (stereo not drawn) | inactive: -2.16% | 
COc1ccc(CN2CCCN(S(=O)(=O)c3ccc(Br)cc3)CC2)cc1 | inactive: -1.76% | 
CC(/C=C/c1ccc2c(c1)OCO2)=N\NC(=O)c1cccc([N+](=O)[O-])c1 | inactive: -3.14% | 
NC(=S)N1OC[C@@H]2COc3ccc4ccccc4c3[C@@H]21 | inactive: -5.45% | 
Cc1ccc(CN2CCC(c3nc4ccc(Cl)cc4[nH]3)CC2)cc1 | inactive: 1.24% | 
CCCC(=O)NC(c1ccc(C)cc1)c1ccc2cccnc2c1O (stereo not drawn) | inactive: -1.75% | 
O=C(Nc1cccc2c1CCCC2)c1cc([N+](=O)[O-])ccc1Cl | inactive: 0.758% | 
Nc1nc(NCCCN2CCOCC2)nc(Nc2ccccc2F)c1[N+](=O)[O-] | inactive: 2.91% | 
CN(C)CCNC(=O)c1cccc(-c2cnc3c(NC=O)cc(-c4cccc(C(F)(F)F)c4)cn23)c1 | inactive: 0.527% | 
O=C(Nc1nccs1)c1cccc(N2C(=O)c3cccc4c([N+](=O)[O-])ccc(c34)C2=O)c1 | inactive: 0.335% | 
COc1ccc(S(=O)(=O)N(C)C)cc1NC(=O)C1CCN(c2ncnc3sc(C)c(C)c23)CC1 | inactive: 2.73% | 
C=CCc1cccc(/C=N/NC(=O)CCC(=O)Nc2ccc(F)cc2)c1O | inactive: 2.3% | 
CN(CCOc1ccc(Br)cc1)CC(O)COc1ccc(C#N)cc1 (stereo not drawn) | inactive: -0.934% | 
CCOC(=O)c1cnc(-n2nc(C)cc2C)nc1NNc1nc(-c2ccccc2)cc(-c2ccccc2)n1 | inactive: 3.05% | 
O=C(NCc1ccccc1Cl)C1CCCN(C(=O)Nc2ccc(F)cc2)C1 (stereo not drawn) | inactive: -2.7% | 
O=C1/C(=C/c2ccncc2)CCC/C1=C\c1ccncc1 | inactive: -3.03% | 
O=C(Nc1ccc(Oc2ccc(NC(=O)Nc3ccc([N+](=O)[O-])cc3)cc2)cc1)Nc1ccc([N+](=O)[O-])cc1 | inactive: 1.02% | 
Cc1ccc2nc(NC(=O)/C=C/c3ccc4c(c3)OCO4)sc2c1 | inactive: 1.77% | 
Cc1nc(N)nc(N)c1/C=C/C(C)(C)c1ccc(Cl)cc1 | inactive: 3.13% | 
O=C(NCCc1csc(-c2cccnc2)n1)c1cccc(Cl)c1 | inactive: -18.5% | 
CCOC(=O)c1c(-n2cccc2)sc2c1CCCC2=O | inactive: -2.33% | 

Compound | activity change, negative = inhibition | Potency
O=C(/C=C/Nc1ccc(S(=O)(=O)Nc2ncccn2)cc1)c1ccc(Cl)c(Cl)c1 | inactive: 0.0049% | 
CC(NC(=O)Nc1cccc([N+](=O)[O-])c1)(C(F)(F)F)C(F)(F)F | inactive: 2.38% | 
Cc1ccc(C)c(NC(=O)CSc2n[nH]c(-c3ccccn3)n2)c1 | inactive: -10.6% | 
COc1cccc2c1C(=O)C=C(C)C2=O | inactive: -9.52% | 
CCN(CC(=O)NC(C)(C)C)Cc1nc2c(Br)cc(Br)cc2c(=O)[nH]1 | inactive: -13.1% | 
Cn1c(CO)cnc1S(=O)(=O)Cc1ccc([N+](=O)[O-])cc1 | inactive: 3.21% | 
CCn1cc(C(=O)NCCCN2CCCC(C)C2)c(=O)c2cc(S(=O)(=O)N3CCc4ccccc4C3)ccc21 (stereo not drawn) | inactive: 2.04% | 
CN(CC(=O)Nc1cccc(F)c1)CC(=O)Nc1cccc2ccccc12 | inactive: -3.09% | 
Cc1ccc(Cc2cnc(NC(=O)/C(C#N)=C/c3ccc(-c4cccc([N+](=O)[O-])c4)o3)s2)cc1 | inactive: 1.02% | 
Oc1ccccc1C(Nc1nccs1)c1ccc2cccnc2c1O (stereo not drawn) | inactive: -4.63% | 
CCn1c(C)cc(C(=O)COC(=O)c2ccccc2[N+](=O)[O-])c1C |  | active: 17.8 nM
CCN1CCN(c2cc(C(C)C)nc3c(-c4ccccc4)c(C)nn23)CC1 | inactive: 0.19% | 
Cc1nc(N=C(N)N)nc2c(C)cccc12 | inactive: -0.148% | 
CC[C@H]1CN2CCc3cc(OC)c(OC)cc3C2C[C@@H]1C[C@H]1NCCc2cc(OC)c(OC)cc21 (stereo partly drawn) | inactive: 3.56% | 
Oc1ccc2ccccc2c1/C=C/c1ccc2c(Br)cc(Br)c(O)c2n1 | inactive: -15.1% | 
O=C(CSc1n[nH]c(-c2ccccn2)n1)Nc1ccc(F)cc1 | inactive: -11.7% | 
O=C(Nc1ccc(NC(=O)c2ccc(Cl)cc2Cl)cc1)c1cccs1 | inactive: 2.51% | 
CCSc1nc2ccccc2n1C(=O)/C=C\c1ccc(OC)c(OC)c1 | inactive: -11.1% | 
CCc1cc(C)cc(OCCNC(=O)c2cncc(Br)c2)c1 | inactive: -3.17% | 
CN(C)CCCN(C(=O)c1ccc(S(=O)(=O)N(C)Cc2ccccc2)cc1)c1nc2c(F)cccc2s1 | inactive: 1.45% | 
COc1ccccc1-n1c(-c2ccccc2)c[n+]2c1CCc1ccccc1-2 | inactive: 0.393% | 

An excerpt of these results, as a markdown table:

| Compound | activity change, negative = inhibition | Potency |
| --- | --- | --- |
| Cn1c(CO)cnc1S(=O)(=O)Cc1ccc([N+](=O)[O-])cc1 | inactive: 3.21% |  |
| CCn1cc(C(=O)NCCCN2CCCC(C)C2)c(=O)c2cc(S(=O)(=O)N3CCc4ccccc4C3)ccc21 (stereo not drawn) | inactive: 2.04% |  |
| CN(CC(=O)Nc1cccc(F)c1)CC(=O)Nc1cccc2ccccc12 | inactive: -3.09% |  |
| Cc1ccc(Cc2cnc(NC(=O)/C(C#N)=C/c3ccc(-c4cccc([N+](=O)[O-])c4)o3)s2)cc1 | inactive: 1.02% |  |
